# Laboratory results published in the supplement of paper PMC10331698.
# ± gives the standard deviation of the averaged measurements. Small differences around the control level are noise.
# Legend:
# Assay in all cases: level (log10 ratio to DMSO vehicle control); higher = higher biomarker level / cell amount than vehicle control
# [1] = compound: O=S(=O)(O)C(F)(F)C(F)(F)C(F)(F)C(F)(F)C(F)(F)C(F)(F)C(F)(F)C(F)(F)F [Potassium perfluorooctanesulfonate]; settings: 2200 nM; in DMSO
# Procedure: (§1)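 BioMAP Diversity Plus panel of 12 human primary cell co-culture systems (3C, 4H, LPS, SAg, BT, BF4T, BE3C, CASM3C, HDF3CGF, KF3CT, MyoF, Mphg). Compounds were added 1 h before stimulation and left for 24 h (MyoF 48 h; BT 72 h for soluble read-outs or 6 d for IgG). Biomarkers were read by ELISA, cytotoxicity by SRB, PBMC viability and proliferation by Alamar Blue. Each well value was divided by the mean of 8 DMSO control wells on the same plate and log10 transformed; duplicate blinded samples were tested at 4 concentrations.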
# [2] = compound: NS(=O)(=O)C(F)(F)C(F)(F)C(F)(F)C(F)(F)C(F)(F)C(F)(F)C(F)(F)C(F)(F)F [Perfluorooctanesulfonamide]; settings: in DMSO
# Procedure: as §1
# [3] = compound: C=C(C)C(=O)OCC(F)(F)C(F)(F)C(F)(F)C(F)(F)C(F)(F)C(F)(F)C(F)(F)F; settings: in DMSO
# Procedure: as §1
# [4] = compound: COC(=O)C(F)(F)C(F)(F)OC(F)(C(F)(F)F)C(F)(F)OC(F)=C(F)F [Methyl perfluoro(3-(1-ethenyloxypropan-2-yloxy)propanoate)]; settings: in DMSO
# Procedure: as §1
# Pentafluoropropionamide = compound: NC(=O)C(F)(F)C(F)(F)F [Pentafluoropropionamide]; settings: 2200 nM; in DMSO
# Procedure: as §1
# Heptafluorobutyl iodide = compound: FC(F)(F)C(F)(F)C(F)(F)CI [Heptafluorobutyl iodide]; settings: 2200 nM; in DMSO
# Procedure: as §1
# [5] = compound: O=S(=O)(OCC(F)(F)F)C(F)(F)C(F)(F)C(F)(F)C(F)(F)F [2,2,2-Trifluoroethyl perfluorobutanesulfonate]; settings: 2200 nM; in DMSO
# Procedure: as §1
# [6] = compound: C=CC(=O)OCC(F)(F)C(F)(F)C(F)(F)C(F)(F)C(F)(F)C(F)(F)C(F)(F)F [1H,1H-Perfluorooctyl acrylate]; settings: 2200 nM; in DMSO
# Procedure: as §1
# [7] = compound: NC(=O)C(F)(F)C(F)(F)C(F)(F)C(F)F; settings: in DMSO
# Procedure: as §1
# [8] = compound: O=C(O)C(F)(F)C(F)(F)C(F)F [4H-Perfluorobutanoic acid]; settings: in DMSO
# Procedure: as §1
# [9] = compound: O=S(=O)(F)C(F)(F)C(F)(F)C(F)(F)C(F)(F)C(F)(F)C(F)(F)C(F)(F)C(F)(F)F [Perfluorooctanesulfonyl fluoride]; settings: 2200 nM; in DMSO
# Procedure: as §1
# [10] = compound: O=S(=O)(O)C(F)(F)C(F)(F)C(F)(F)C(F)(F)C(F)(F)C(F)(F)C(F)(F)C(F)(F)F [Perfluorooctanesulfonic acid]; settings: 2200 nM; in DMSO
# Procedure: as §1
# [11] = compound: C=CC(F)(F)C(F)(F)C(F)(F)C(F)(F)C(F)(F)C(F)(F)C(F)(F)C(F)(F)C=C [1,8-Divinylperfluorooctane]; settings: in DMSO
# Procedure: as §1
# [12] = compound: OCC(F)(F)C(F)(F)C(F)(F)C(F)(F)C(F)(F)C(F)F [1H,1H,7H-Dodecafluoro-1-heptanol]; settings: 2200 nM; in DMSO
# Procedure: as §1
# [13] = compound: CO[Si](C)(CCC(F)(F)C(F)(F)C(F)(F)C(F)(F)C(F)(F)C(F)(F)F)OC [Dimethoxymethyl((perfluorohexyl)ethyl)silane]; settings: in DMSO
# Procedure: as §1
# [14] = compound: FC(F)(F)C(F)(F)C(F)(F)CC1CO1 [1H,1H-Heptafluorobutyl epoxide]; settings: 2200 nM; in DMSO
# Procedure: as §1
# [15] = compound: OCCCCC(F)(F)C(F)(F)C(F)(F)C(F)(F)F [4:4 Fluorotelomer alcohol]; settings: 2200 nM; in DMSO
# Procedure: as §1
# [16] = compound: O=P(O)(O)CCC(F)(F)C(F)(F)C(F)(F)C(F)(F)C(F)(F)C(F)(F)F [2-(Perfluorohexyl)ethylphosphonic acid]; settings: 2200 nM; in DMSO
# Procedure: as §1
Test System,level (log10) [1],level (log10) ([2]; 2200 nM),level (log10) ([2]; 6700 nM),level (log10) ([2]; 20000 nM),level (log10) ([3]; 740 nM),level (log10) ([3]; 2200 nM),level (log10) ([4]; 740 nM),level (log10) ([4]; 2200 nM),level (log10) (Pentafluoropropionamide),level (log10) (Heptafluorobutyl iodide),level (log10) [5],level (log10) [6],level (log10) ([7]; 2200 nM),level (log10) ([7]; 6700 nM),level (log10) ([7]; 20000 nM),level (log10) ([7]; 60000 nM),level (log10) ([8]; 2200 nM),level (log10) ([8]; 6700 nM),level (log10) ([8]; 20000 nM),level (log10) ([8]; 60000 nM),level (log10) [9],level (log10) [10],level (log10) ([11]; 740 nM),level (log10) ([11]; 2200 nM),level (log10) [12],level (log10) ([13]; 740 nM),level (log10) ([13]; 2200 nM),level (log10) [14],level (log10) [15],level (log10) [16]
KF3CT:CXCL10/IP-10,0 ± 0.028,0.0015 ± 0.00071,-0.021 ± 0.0028,-0.205 ± 0.0092,0.01 ± 0.014,0.0015 ± 0.005,-0.0015 ± 0.005,-0.0075 ± 0.00071,-0.007 ± 0.011,-0.001 ± 0.016,0.0365 ± 0.022,-0.004 ± 0.0057,0.003 ± 0.016,-0.001 ± 0.0014,-0.001 ± 0.013,0.0025 ± 0.0064,0.008 ± 0.0071,-0.007 ± 0.016,-0.0035 ± 0.016,0.01 ± 0.0042,0.0055 ± 0.0078,0.0075 ± 0.04,-0.011 ± 0.013,-0.0085 ± 0.0021,-0.0035 ± 0.00071,0,-0.007 ± 0.011,-0.0175 ± 0.022,0.022 ± 0.025,-0.003 ± 0.014
CASM3C:CD141/Thrombomodulin,0.0315 ± 0.064,-0.031 ± 0.0057,0 ± 0.0085,0.0505 ± 0.0078,-0.0345 ± 0.016,-0.0005 ± 0.0035,-0.0005 ± 0.035,0.0205 ± 0.0021,-0.0125 ± 0.023,0.009 ± 0.024,-0.0095 ± 0.036,0.009 ± 0.02,-0.0205 ± 0.005,-0.008 ± 0.0042,0.0085 ± 0.025,0.0085 ± 0.0092,0.0325 ± 0.016,-0.0005 ± 0.016,0 ± 0.081,-0.0145 ± 0.028,0.0105 ± 0.015,-0.0015 ± 0.026,-0.0185 ± 0.036,-0.025 ± 0.035,0.027 ± 0.0085,-0.019 ± 0.016,0.008 ± 0.014,-0.022 ± 0.024,0.02 ± 0.033,0.0075 ± 0.029
BF4T:Keratin 8/18,-0.007 ± 0.0057,-0.0065 ± 0.005,-0.0085 ± 0.005,-0.069 ± 0.023,0.019 ± 0.03,0.0225 ± 0.015,0.0105 ± 0.00071,-0.008 ± 0.02,0.0245 ± 0.044,0.016 ± 0.031,-0.0015 ± 0.018,0.01 ± 0.028,0.009 ± 0.044,0.004 ± 0.042,0.005 ± 0.011,0.0135 ± 0.026,-0.0185 ± 0.0035,-0.027 ± 0.027,-0.0025 ± 0.013,0.0035 ± 0.021,0.0005 ± 0.018,-0.001 ± 0.013,0.013 ± 0.064,0.012 ± 0.047,0.0175 ± 0.0035,-0.002 ± 0.071,0.0145 ± 0.073,-0.019 ± 0.018,0.022 ± 0.037,0.009 ± 0.03
BF4T:CCL26/Eotaxin-3,-0.015 ± 0.11,-0.046 ± 0.048,-0.117 ± 0.017,-0.169 ± 0.014,0.0125 ± 0.073,-0.013 ± 0.041,0.0375 ± 0.042,-0.012 ± 0.0028,-0.0045 ± 0.06,0.0065 ± 0.047,-0.0115 ± 0.039,-0.004 ± 0.014,0.027 ± 0.041,-0.001 ± 0.0085,-0.012 ± 0.033,0.0005 ± 0.018,-0.0325 ± 0.0064,-0.035 ± 0.011,0.0085 ± 0.0035,-0.0115 ± 0.063,0.0285 ± 0.0021,-0.0105 ± 0.08,-0.0115 ± 0.052,-0.0115 ± 0.032,0.041 ± 0.09,0.014 ± 0.018,-0.0135 ± 0.00071,0.002 ± 0.044,0.05 ± 0.079,0.0275 ± 0.094
